Measurements published in PubChem BioAssay AID651768 (National Center for Advancing Translational Sciences (NCATS), 2012).
The campaign covered roughly 360,000 compounds. About 1,700 (0.47%) were called active. The shares of active, inactive and inconclusive entries below differ from those in the screen. The call rests on the fitted dose curve; in most records, active means well fitted inhibition curve with a large enough effect; inconclusive means small, poorly fitted or top-dose-only effect; inactive means no such curve, though single readings can be large or run the other way. Potencies beside an inconclusive call are fits to weak or partial responses and may not hold up.

By UniProt entry, the sequences of proteins in these tests, tags left out.
UniProt Q14191, whole entry, looked up: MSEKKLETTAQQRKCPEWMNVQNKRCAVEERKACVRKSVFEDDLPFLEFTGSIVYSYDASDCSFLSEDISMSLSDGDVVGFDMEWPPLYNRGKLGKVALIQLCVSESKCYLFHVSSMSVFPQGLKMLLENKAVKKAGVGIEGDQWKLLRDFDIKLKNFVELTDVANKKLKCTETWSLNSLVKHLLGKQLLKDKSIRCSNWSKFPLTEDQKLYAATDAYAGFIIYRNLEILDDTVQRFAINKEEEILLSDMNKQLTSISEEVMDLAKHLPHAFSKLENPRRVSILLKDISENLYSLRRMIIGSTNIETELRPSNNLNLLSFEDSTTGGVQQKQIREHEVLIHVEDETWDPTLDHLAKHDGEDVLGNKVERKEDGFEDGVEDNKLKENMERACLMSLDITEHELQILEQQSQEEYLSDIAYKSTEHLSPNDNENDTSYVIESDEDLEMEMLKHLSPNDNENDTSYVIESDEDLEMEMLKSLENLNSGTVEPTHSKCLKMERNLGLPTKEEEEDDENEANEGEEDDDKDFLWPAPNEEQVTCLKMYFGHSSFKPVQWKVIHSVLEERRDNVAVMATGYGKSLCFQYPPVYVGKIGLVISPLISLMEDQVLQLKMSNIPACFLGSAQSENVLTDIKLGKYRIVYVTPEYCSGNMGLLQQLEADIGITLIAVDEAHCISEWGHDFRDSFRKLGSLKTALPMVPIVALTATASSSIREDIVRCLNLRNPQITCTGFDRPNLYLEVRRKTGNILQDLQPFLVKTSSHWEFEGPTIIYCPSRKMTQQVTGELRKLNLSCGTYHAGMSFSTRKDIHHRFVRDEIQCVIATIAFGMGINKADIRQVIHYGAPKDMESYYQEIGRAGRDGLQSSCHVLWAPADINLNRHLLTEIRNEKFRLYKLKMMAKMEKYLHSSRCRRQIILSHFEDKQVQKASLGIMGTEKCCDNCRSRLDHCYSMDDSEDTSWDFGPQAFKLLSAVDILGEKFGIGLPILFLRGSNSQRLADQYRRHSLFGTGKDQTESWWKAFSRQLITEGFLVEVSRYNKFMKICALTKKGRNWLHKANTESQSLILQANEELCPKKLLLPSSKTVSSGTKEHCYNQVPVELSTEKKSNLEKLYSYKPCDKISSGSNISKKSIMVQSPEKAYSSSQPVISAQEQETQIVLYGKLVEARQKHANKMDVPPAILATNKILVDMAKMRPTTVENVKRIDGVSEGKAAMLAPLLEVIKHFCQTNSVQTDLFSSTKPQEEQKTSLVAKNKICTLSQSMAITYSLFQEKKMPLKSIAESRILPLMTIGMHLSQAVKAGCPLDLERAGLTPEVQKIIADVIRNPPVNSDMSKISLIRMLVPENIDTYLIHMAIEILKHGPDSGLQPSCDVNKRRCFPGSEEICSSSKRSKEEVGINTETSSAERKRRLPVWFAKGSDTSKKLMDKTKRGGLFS

What follows are compounds tested against Bifunctional 3'-5' exonuclease/ATP-dependent helicase WRN (Homo sapiens) (UniProt Q14191) (assay: qHTS for Inhibitors of WRN Helicase). Details: WRN helicase unwinding, fluorescent forked duplex, kinetic; activity change, negative = inhibition: at 114 µM (top of the series) unless noted.
Outline: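 Screening of the MLSMR collection measured strand separation of a quenched forked DNA duplex (100 nM) by 20 nM WRN with 2 mM ATP, all final. Compounds were preincubated with enzyme 15 min at room temperature.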
Further: nearly all actives have a fitted effect of over 55% in size.
On the % scale 0 is the no-effect control and ±100 the full control effect; potency means the concentration at half of the fitted maximal effect.

Structure (SMILES)	Potency	activity change, negative = inhibition
Cc1cnc(C(=O)OCC(=O)Nc2sc3c(c2C#N)CCC3)cn1	inconclusive: 39.8 µM [inhibitor, single point]	–
Cc1ccc(OCc2csc(N)n2)cc1	–	inactive: -6.99%
COc1cc(C(=O)CCN2CCC(c3ccccc3)C2)cc(OC)c1OC (centres undefined)	inconclusive: 44.7 µM [inhibitor, partial curve]	–
CC(=O)Nc1ccc(NC(=O)C(C)Sc2nc3ccccc3c(=O)n2Cc2ccco2)cc1 (centres undefined)	–	inactive: -8.54%
O=C(CN1C(=O)/C(=C2\SC(=S)N(CCS(=O)(=O)O)C2=O)c2ccccc21)Nc1cccc(Br)c1	active: 89.1 µM	–
Cc1ccc(-c2cc(C(=O)N/N=C/c3ccccc3O)n[nH]2)o1	–	inactive: -2.33%
Cc1cc(NS(=O)(=O)c2ccc(NS(=O)(=O)c3ccc(Br)cc3)cc2)no1	inconclusive: 44.7 µM [inhibitor, full curve, poor fit]	–
COc1ccc(OC)c(/C=N/Nc2nc(C)cc(=O)[nH]2)c1	active: 89.1 µM	–
CNC(=S)N/N=C/c1c(Cl)cccc1Cl	–	inactive: 4.78%
CC(CS(=O)(=O)c1ccc2c(c1)NC(=O)CS2)C(=O)NCc1ccccc1Cl (centres undefined)	active: 39.8 µM	–
Cc1nc(S/C(=C\c2ccc(-c3ccc(C(=O)O)c(Cl)c3)o2)C(=O)O)n[nH]1	active: 39.8 µM	–
O=C1N/C(=C\c2ccc(O)cc2)C(=O)c2ccccc21	inconclusive: 56.2 µM [inhibitor, partial curve]	–
C#CCOCCOCCOCCNc1nc(N2CCN(C(=O)CCCCCCCCCCNC(=O)[C@H](CCCCN)n3cc(CCO)nn3)CC2)nc(N2CCN(C(=O)CCCCCCCCCCNC(=O)[C@H](CCCN=C(N)N)n3cc(C[C@@H](C)CC)nn3)CC2)n1	active: 35.5 µM	–
O=C(O)c1cccc(S(=O)(=O)N2CCC(n3nnc4cc(C(F)(F)F)ccc43)CC2)c1	–	inactive: -12.9%
O=C(CCCOc1ccc(Cl)cc1Cl)N/N=C/c1ccco1	inconclusive: 31.6 µM [inhibitor, single point]	–
Cc1csc(SCC(=O)Nc2sccc2C(N)=O)n1	inconclusive: 39.8 µM [inhibitor, single point]	–
CC(C)CSC1=NSC2=NC(=O)/C(=C\c3coc4ccccc4c3=O)C(=N)N12	inconclusive: 79.4 µM [inhibitor, partial curve]	–
O=C(CCC(=O)c1cccs1)OCC(=O)N1CCN(C(=O)c2ccco2)CC1	active: 31.6 µM	–
CSc1nc(SCCO)c2sc3nc(-c4ccco4)c4c(c3c2n1)CC(C)(C)OC4	active: 50.1 µM	–
CCC1OC2(C)OC(=N)C1(C#N)C(C#N)(C#N)C2c1ccccc1 (centres undefined)	inconclusive: 79.4 µM [inhibitor, single point]	–
Cc1cc(Br)cn2c(Cc3ccsc3)c(-c3ccco3)nc12	inconclusive: 56.2 µM [inhibitor, partial curve]	–
CCOC(=O)SC1=N/C(=C\c2ccc(N(C)C)cc2)C(=O)S1	–	inactive: -19.5%

As entered above.
Cc1cnc(C(=O)OCC(=O)Nc2sc3c(c2C#N)CCC3)cn1 – Potency: inconclusive: 39.8 µM [inhibitor, single point]
CC(=O)Nc1ccc(NC(=O)C(C)Sc2nc3ccccc3c(=O)n2Cc2ccco2)cc1 (centres undefined) – activity change, negative = inhibition: inactive: -8.54%
C#CCOCCOCCOCCNc1nc(N2CCN(C(=O)CCCCCCCCCCNC(=O)[C@H](CCCCN)n3cc(CCO)nn3)CC2)nc(N2CCN(C(=O)CCCCCCCCCCNC(=O)[C@H](CCCN=C(N)N)n3cc(C[C@@H](C)CC)nn3)CC2)n1 – Potency: active: 35.5 µM

(cont.)

Structure (SMILES)	Potency	activity change, negative = inhibition
CN1C(=O)C(N=Nc2ccc([N+](=O)[O-])cc2)SC1=S (centres undefined)	inconclusive: 89.1 µM [inhibitor, single point]	–
COc1ccc(C(=O)Nc2cc(C(=O)c3ccccc3)c(C)oc2=O)cc1	inconclusive: 56.2 µM [inhibitor, partial curve]	–
O=C(O)c1ccc(-c2nc(-c3ccccc3)c(-c3ccccc3)[nH]2)cc1	active: 39.8 µM	–
Cc1cccn2c(=O)c3cc(C(=O)NCc4ccco4)c(=N)n(CCOCCO)c3nc12	inconclusive: 50.1 µM [inhibitor, partial curve]	–
C=C1c2cccc(O)c2C(=O)C2C(=O)[C@]3(O)C(=O)C(C(N)=O)C(=O)[C@@H](N(C)C)[C@@H]3[C@@H](O)[C@H]12 (some centres undefined)	inconclusive: 39.8 µM [inhibitor, partial curve]	–
COCCn1c(C)cc(O)c(C(=O)Nc2cccc(Cl)c2)c1=O	–	inactive: 2.4%
O=c1nc2c(O)cccn2c2c1c(=O)[nH]c1ccccc12	inconclusive: 22.4 µM [inhibitor, partial curve]	–
Cc1cc(=O)[nH]c2c(N=Nc3ccc(O)cc3)c(N)nn12	inconclusive: 50.1 µM [inhibitor, partial curve]	–
O=C(/C=C/c1ccc(Cl)cc1Cl)c1cccnc1	inconclusive: 50.1 µM [inhibitor, partial curve]	–
Cc1cccc(S(=O)(=O)c2c(N)n(Cc3ccco3)c3nc4ccccc4nc23)c1	inconclusive: 35.5 µM [inhibitor, partial curve]	–
CCN1CCN(CC(=O)N/N=C/c2ccc(F)cc2F)CC1	inconclusive: 50.1 µM [inhibitor, partial curve]	–
O=C(NCc1cccnc1)c1ccc(Cl)c(S(=O)(=O)N2CCOCC2)c1	–	inactive: -11.1%
Cc1ccc(C(=O)Nc2ccc(Oc3ccc(C(=O)O)c(C(=O)O)c3)cc2)cc1C	–	inconclusive: -42.2% [inhibitor] [at 57.1 µM]
COc1ccc(N=Cc2c(O)c3ccccc3oc2=O)cc1	inconclusive: 56.2 µM [inhibitor, single point]	–
CCN(CC)c1ccc(/C=C/C(=O)C2C(=O)C=C(C)OC2=O)cc1 (centres undefined)	inconclusive: 10 µM [inhibitor, full curve]	–
CC(=O)SC(C[N+](=O)[O-])c1cn(C(C)=O)c2ccccc12 (centres undefined)	inconclusive: 79.4 µM [inhibitor, partial curve]	–
CN1\C(=C/C=C/C=C/C=[N+](C)C)C(C)(C)c2ccccc21	active: 4.23 µM	–
COc1ccc(C(O)c2nc3ccccc3n2C(C)C)cc1 (centres undefined)	–	inactive: 0.571%
O=C(Cn1cnc2ccccc2c1=O)NCCC(=O)Nc1ccc(F)cc1	inconclusive: 10 µM [inhibitor, partial curve]	–
O=C(CCN1C(=O)/C(=C\c2ccccc2)SC1=S)Nc1ccc(C(=O)O)cc1	inconclusive: 79.4 µM [inhibitor, partial curve]	–
C=C1C(=O)C=C2CN(C(=O)c3ccccc3)[C@@](Cc3ccc(F)cc3)(C(=O)OC)[C@@H]12	–	inactive: -7.64%
CCCn1c(=O)c2ccccc2n2c(SCC(=O)NCc3cccs3)nnc12	–	inactive: -5.88%
